According to the supplement of paper PMC3682954:
“And” between values parts separate entries of the source, which are not always exact repeats. Equal entries are not always repeated. Structures can show the parent of a compound that is named as a salt. ± gives the standard deviation of the averaged measurements. The list shows a part of the results. Many values rest on one well or one pass, so single values are uncertain.

System: RAW 264.7
Experiment: cell viability (MTT) relative to vehicle control; higher = more viable cells
Settings: stimulus: HMGB1 5 ug/ml, 18 h
[1] = compound concentration: 1 ug/ml

CCCCNc1c(C(=O)OCC)c(C)nc2c1cnn2CC [Tracazolate] was tested. Which cell viability (compound concentration: 3 uM) did it give?
Its cell viability is 106%.

Which cell viability (compound concentration: 3 uM) does the source give for CCCCNc1c(C(=O)OCC)c(C)nc2c1cnn2CC [Tracazolate hydrochloride] here?
The cell viability was 92.6%.

For O=C(O)c1cc2cc3c4c(c2oc1=O)CCCN4CCC3 [Coumarin 343], which cell viability [1] is on record?
The cell viability was 105%.

How did the cell viability (compound concentration: 3 uM) turn out when COc1cc(NC(C)CCCN)c2ncccc2c1 (stereo unspecified) [Primaquine] was run?
The cell viability was 96%.

How did the cell viability (compound concentration: 3 uM) turn out when COc1cc(NC(C)CCCN)c2ncccc2c1 (stereo unspecified) [Primaquine diphosphate] was run?
The cell viability was 130%.

Which cell viability (compound concentration: 3 uM) does the source give for COc1cc(NC(C)CCCN)c2ncccc2c1 (stereo unspecified) here?
The cell viability was 101%.

Which cell viability (compound concentration: 3 uM) does the source give for CCCCC1(COC(=O)CCC(=O)O)C(=O)N(c2ccccc2)N(c2ccccc2)C1=O [Suxibuzone] here?
The cell viability was 109%.

For CCCCC1(COC(=O)CCC(=O)O)C(=O)N(c2ccccc2)N(c2ccccc2)C1=O, which cell viability (compound concentration: 3 uM) is on record?
The cell viability was 105%.

With COc1cc(-c2ccc(=O)[nH]n2)ccc1OC(F)F [Zardaverine] as the compound, how does the cell viability (compound concentration: 3 uM) read?
Its cell viability is 101 ± 8.6%.

Which cell viability (compound concentration: 3 uM) does the source give for COc1cc(-c2ccc(=O)[nH]n2)ccc1OC(F)F here?
Its cell viability is 92.5% and 112%.

How did the cell viability (compound concentration: 3 uM) turn out when CC[N+](CC)(CC)CC(=O)Nc1c(C)cccc1C [Lidocaine N-ethyl bromide quaternary salt] was run?
Its cell viability is 98.1%.

For Cc1cc(-c2ccccc2)nnc1NCCN1CCOCC1 [Minaprine dihydrochloride], which cell viability (compound concentration: 3 uM) is on record?
The cell viability was 88.8%.

For Cc1cc(-c2ccccc2)nnc1NCCN1CCOCC1, which cell viability (compound concentration: 3 uM) is on record?
The cell viability was 113%.

Which cell viability [1] does the source give for Cc1cc(=O)oc2ccc(O)cc12 [6-Hydroxy-4-methyl-2-benzopyrone] here?
Its cell viability is 84.5%.

Which cell viability (compound concentration: 3 uM) does the source give for NC(N)=Nc1nc(CSCC/C(N)=N/S(N)(=O)=O)cs1 [Famotidine] here?
Its cell viability is 99.5 ± 8.4%.

With NC(N)=Nc1nc(CSCC/C(N)=N/S(N)(=O)=O)cs1 as the compound, how does the cell viability (compound concentration: 3 uM) read?
The cell viability was 107 ± 14%.

For CSc1ccc2c(c1)N(CCC1CCCCN1C)c1ccccc1S2 (stereo unspecified) [Thioridazine hydrochloride], which cell viability (compound concentration: 3 uM) is on record?
Its cell viability is 112 ± 1.4%.

With CSc1ccc2c(c1)N(CCC1CCCCN1C)c1ccccc1S2 (stereo unspecified) as the compound, how does the cell viability (compound concentration: 3 uM) read?
The cell viability was 101%.

How did the cell viability (compound concentration: 3 uM) turn out when CSc1ccc2c(c1)N(CCC1CCCCN1C)c1ccccc1S2 (stereo unspecified) [Thioridazine] was run?
The cell viability was 103%.

CC(C)(Sc1ccc(CCN(CCCCC2CCCCC2)C(=O)NC2CCCCC2)cc1)C(=O)O was tested. Which cell viability (compound concentration: 3 uM) did it give?
Its cell viability is 94.4%.

For NC1C=CC=C(C(=O)O)C1 (stereo unspecified) [Gabaculine hydrochloride], which cell viability (compound concentration: 3 uM) is on record?
Its cell viability is 107%.

With CC/C(=C(/CC)c1ccc(O)cc1)c1ccc(O)cc1 [Diethylstilbestrol] as the compound, how does the cell viability (compound concentration: 3 uM) read?
Its cell viability is 110 ± 24%.

Which cell viability (compound concentration: 3 uM) does the source give for CC/C(=C(/CC)c1ccc(O)cc1)c1ccc(O)cc1 here?
Its cell viability is 99.6%.

CC1=C(/C=C/C(C)=C/C=C/C(C)=C\C(=O)O)C(C)(C)CCC1 [Isotretinoin] was tested. Which cell viability (compound concentration: 3 uM) did it give?
The cell viability was 111%.

CC1=C(/C=C/C(C)=C/C=C/C(C)=C\C(=O)O)C(C)(C)CCC1 [13-cis-retinoic acid] was tested. Which cell viability (compound concentration: 3 uM) did it give?
The cell viability was 125%.

Which cell viability (compound concentration: 3 uM) does the source give for CC1=C(/C=C/C(C)=C/C=C/C(C)=C\C(=O)O)C(C)(C)CCC1 here?
Its cell viability is 115%.
